Source: article PMC12140432

Tested on: PBX1
Test: EMSA
Settings: nuclear extract, poly(dI-dC), LightShift EMSA: 50 ng/ul poly(dI-dC), 2.5% glycerol, 0.05% NP-40, 5 mM MgCl2, 20 fmol biotin DNA, 0.6 ug extract in 20 ul, room temperature 20 min, 5% PAGE in 0.5X TBE, protein in a lysate after overexpression, label: 5' biotin

Sequence | binding result (direct or indirect binding) | binding result
CGAGGCGAAGGGCGGGGGGCTGCGG (double strand) [SFE1C] | binds | –
TAATGCATTCGGCGGCTATTCCCCG (double strand) [SFE1B] | – | no binding
CCCCCCCCCCCCGCCCCCCTCTGAA (double strand) [SFE1A] | binds | –

The exact form of at least one protein or probe is not confirmed. Results from cells or extracts need not show a direct contact. No signal at the amounts used counts as a negative.
